Publication PMC9218074
These are yes or no findings as the source states them, for the method shown. Binding seen in cells or lysates may run through a third protein. Some results given as binding are weak or reduced against the parent protein; the word gives no strength.

Chains of the proteins cited; added tags and fusions are not shown. Residues count along the entry.
UniProt Q9QUK6, residues 26-835: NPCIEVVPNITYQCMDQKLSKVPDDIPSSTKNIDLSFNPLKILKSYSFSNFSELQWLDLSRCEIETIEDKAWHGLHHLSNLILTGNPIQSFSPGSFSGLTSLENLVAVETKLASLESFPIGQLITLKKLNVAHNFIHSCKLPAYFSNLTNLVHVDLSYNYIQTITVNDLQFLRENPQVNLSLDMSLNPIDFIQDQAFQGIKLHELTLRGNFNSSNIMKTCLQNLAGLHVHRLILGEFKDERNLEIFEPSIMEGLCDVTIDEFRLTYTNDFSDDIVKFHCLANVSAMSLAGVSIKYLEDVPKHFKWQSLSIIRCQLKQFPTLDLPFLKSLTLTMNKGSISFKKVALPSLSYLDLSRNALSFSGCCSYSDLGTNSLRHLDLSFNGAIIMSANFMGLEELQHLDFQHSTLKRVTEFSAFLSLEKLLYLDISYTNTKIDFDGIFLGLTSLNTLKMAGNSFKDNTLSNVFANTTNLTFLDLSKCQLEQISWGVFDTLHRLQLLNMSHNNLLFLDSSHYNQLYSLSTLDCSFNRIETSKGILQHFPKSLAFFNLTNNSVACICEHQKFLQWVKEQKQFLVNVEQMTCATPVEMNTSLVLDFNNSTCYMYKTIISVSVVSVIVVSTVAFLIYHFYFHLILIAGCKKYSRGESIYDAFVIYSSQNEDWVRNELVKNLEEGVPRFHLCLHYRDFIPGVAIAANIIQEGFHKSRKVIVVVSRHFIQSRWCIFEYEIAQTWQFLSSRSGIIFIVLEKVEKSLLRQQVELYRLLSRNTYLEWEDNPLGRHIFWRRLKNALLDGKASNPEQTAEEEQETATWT
UniProt P22366: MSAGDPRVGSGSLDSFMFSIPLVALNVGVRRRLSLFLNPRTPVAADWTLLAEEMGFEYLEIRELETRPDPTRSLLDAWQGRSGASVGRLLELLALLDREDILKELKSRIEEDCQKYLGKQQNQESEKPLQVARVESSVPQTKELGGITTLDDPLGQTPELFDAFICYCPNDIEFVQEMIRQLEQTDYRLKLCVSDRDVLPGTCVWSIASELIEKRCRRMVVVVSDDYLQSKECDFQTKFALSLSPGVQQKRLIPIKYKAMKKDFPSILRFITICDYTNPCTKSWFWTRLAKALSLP

B1: myeloid differentiation 2 (protein, UniProt Q9JHF9 19-160)
chain: EKQQWFCNSSDAIISYSYCDHLKFPISISSEPCIRLRGTNGFVHVEFIPRGNLKYLYFNLFISVNSIELPKRKEVLCHGHDDDYSFCRALKGETVNTSIPFSFEGILFPKGHYRCVAEAIAGDTEEKLFCLNFTIIHRRDVN

Molecular target: Toll-like receptor 4 (mouse (endogenous in BV-2)) (UniProt Q9QUK6)
Assay: co-IP; BV-2 cells treated with LPS (200 ng/mL) and indicated concentrations of ACT001 for 1 h; lysis in 25 mM Tris pH 8.0, 150 mM KCl, 5 mM EDTA, 0.5% NP-40; anti-TLR4 antibody overnight at 4 °C, magnetic beads; MD2, TLR4 and MyD88 detected by immunoblotting

| Molecule | binding |
| --- | --- |
| myeloid differentiation primary response protein 88 (from UniProt P22366 1-296) | binds |
| B1 | binds |
